Measured values published in publication PMC9277809.

Assays:
[1] = target: T1, Ski-interacting protein OsSKIPa (rice (Oryza sativa L.)) (UniProt Q6K8D9); test: two-hybrid; confirmation of single bait-E3 pairs in yeast; growth on DDO (SD-Leu-Trp) and QDO (SD-Leu-Trp-His-Ade); called yeast co-transformation assay for OsPAL1-OsFBK16
T1 sequence: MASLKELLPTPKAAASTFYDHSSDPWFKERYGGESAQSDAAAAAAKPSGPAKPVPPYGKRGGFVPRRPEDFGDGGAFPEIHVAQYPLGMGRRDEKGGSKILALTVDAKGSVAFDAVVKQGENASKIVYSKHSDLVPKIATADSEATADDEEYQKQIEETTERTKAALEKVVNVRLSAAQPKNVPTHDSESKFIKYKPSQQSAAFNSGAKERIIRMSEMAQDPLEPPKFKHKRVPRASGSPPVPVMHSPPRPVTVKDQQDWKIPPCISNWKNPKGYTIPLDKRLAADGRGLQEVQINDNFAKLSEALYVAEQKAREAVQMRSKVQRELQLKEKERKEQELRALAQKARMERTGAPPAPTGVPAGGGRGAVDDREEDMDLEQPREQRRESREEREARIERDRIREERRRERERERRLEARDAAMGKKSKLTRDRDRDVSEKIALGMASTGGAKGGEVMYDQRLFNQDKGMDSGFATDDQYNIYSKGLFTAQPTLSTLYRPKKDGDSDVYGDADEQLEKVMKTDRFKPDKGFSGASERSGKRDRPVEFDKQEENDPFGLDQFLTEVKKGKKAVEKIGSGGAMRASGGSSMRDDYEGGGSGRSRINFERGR

[2] = target: T1, Ski-interacting protein OsSKIPa (rice (Oryza sativa L.)); test: two-hybrid; library screen: AH109 carrying the pGBKT7-bait mated with Y187 carrying the pGADT7-UbE3 library (1499 E3 ORFs) at 30 °C for 20-24 h; selection on SD-Leu-Trp-His-Ade; positive clones identified by PCR and sequencing
[3] = target: T2, OsSKIPa-GFP (rice (Oryza sativa L.)) (UniProt Q6K8D9); test: co-IP; GFP-tagged substrate and HA-tagged E3 co-expressed in N. benthamiana leaves by agro-infiltration, 72 h; immunoprecipitated with anti-GFP/agarose beads; blot with anti-GFP or anti-HA
T2 sequence: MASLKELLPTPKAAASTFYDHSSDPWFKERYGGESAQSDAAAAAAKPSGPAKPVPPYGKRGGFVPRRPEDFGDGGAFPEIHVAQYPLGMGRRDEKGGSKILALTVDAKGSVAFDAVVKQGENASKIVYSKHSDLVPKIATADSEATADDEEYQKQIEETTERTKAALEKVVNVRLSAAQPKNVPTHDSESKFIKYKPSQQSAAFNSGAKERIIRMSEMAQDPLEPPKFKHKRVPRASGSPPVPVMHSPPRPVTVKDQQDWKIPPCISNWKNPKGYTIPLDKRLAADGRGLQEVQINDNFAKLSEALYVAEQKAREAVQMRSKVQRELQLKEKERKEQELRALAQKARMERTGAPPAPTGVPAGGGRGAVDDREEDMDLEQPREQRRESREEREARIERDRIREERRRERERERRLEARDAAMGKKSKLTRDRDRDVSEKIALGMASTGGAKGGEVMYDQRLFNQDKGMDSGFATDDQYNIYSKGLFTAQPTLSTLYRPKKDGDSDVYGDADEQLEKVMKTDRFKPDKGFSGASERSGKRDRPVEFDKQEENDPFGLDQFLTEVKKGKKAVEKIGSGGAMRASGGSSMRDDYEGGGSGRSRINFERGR

[4] = target: T3, OsNPR2-HA (rice (Oryza sativa L.)) (UniProt Q0JJ01); test: co-IP; GFP-tagged substrate and HA-tagged E3 co-expressed in N. benthamiana leaves by agro-infiltration, 72 h; immunoprecipitated with anti-HA/agarose beads; blot with anti-GFP or anti-HA
T3 sequence: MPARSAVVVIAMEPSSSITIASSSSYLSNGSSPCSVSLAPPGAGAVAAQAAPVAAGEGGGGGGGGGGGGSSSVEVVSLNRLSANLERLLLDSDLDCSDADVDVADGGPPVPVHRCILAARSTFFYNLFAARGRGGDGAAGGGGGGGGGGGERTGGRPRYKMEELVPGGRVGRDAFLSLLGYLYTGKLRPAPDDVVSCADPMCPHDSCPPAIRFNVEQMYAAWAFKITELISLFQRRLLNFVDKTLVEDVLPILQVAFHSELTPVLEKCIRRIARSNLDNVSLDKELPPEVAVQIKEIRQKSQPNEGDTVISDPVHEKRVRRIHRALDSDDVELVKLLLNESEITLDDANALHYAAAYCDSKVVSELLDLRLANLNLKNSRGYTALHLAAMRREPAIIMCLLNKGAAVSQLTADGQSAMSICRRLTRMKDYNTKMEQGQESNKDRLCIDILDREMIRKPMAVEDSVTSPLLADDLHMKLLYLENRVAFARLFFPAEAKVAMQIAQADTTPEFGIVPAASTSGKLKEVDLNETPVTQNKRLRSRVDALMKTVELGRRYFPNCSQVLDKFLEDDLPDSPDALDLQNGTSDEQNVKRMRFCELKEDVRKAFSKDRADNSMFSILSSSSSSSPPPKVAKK

[5] = target: T4, OsNPR3-HA (rice (Oryza sativa L.)) (UniProt Q75HA6); test: as above
T4 sequence: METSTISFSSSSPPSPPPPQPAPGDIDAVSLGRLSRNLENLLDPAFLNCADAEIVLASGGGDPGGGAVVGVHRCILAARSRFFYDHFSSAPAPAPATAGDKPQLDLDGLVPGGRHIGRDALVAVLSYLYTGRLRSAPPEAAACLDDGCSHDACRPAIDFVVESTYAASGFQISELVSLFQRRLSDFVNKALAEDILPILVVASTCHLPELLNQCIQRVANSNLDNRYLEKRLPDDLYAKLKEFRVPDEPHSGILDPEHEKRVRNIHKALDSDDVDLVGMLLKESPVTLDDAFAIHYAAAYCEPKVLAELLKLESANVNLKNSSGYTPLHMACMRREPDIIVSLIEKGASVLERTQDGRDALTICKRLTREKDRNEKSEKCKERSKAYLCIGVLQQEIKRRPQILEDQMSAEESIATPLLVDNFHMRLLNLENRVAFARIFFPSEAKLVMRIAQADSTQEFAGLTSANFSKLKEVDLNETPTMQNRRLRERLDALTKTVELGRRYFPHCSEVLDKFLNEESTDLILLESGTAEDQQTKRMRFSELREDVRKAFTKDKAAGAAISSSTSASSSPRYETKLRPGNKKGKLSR

[6] = target: rTGA2.1 (rice (Oryza sativa L.)); test: two-hybrid; confirmation of single bait-E3 pairs in yeast; growth on DDO (SD-Leu-Trp) and QDO (SD-Leu-Trp-His-Ade); called yeast co-transformation assay for OsPAL1-OsFBK16
[7] = target: rTGA2.1 (rice (Oryza sativa L.)); test: two-hybrid; library screen: AH109 carrying the pGBKT7-bait mated with Y187 carrying the pGADT7-UbE3 library (1499 E3 ORFs) at 30 °C for 20-24 h; selection on SD-Leu-Trp-His-Ade; positive clones identified by PCR and sequencing
[8] = target: OsPUB69-HA (rice (Oryza sativa L.)); test: co-IP; GFP-tagged substrate and HA-tagged E3 co-expressed in N. benthamiana leaves by agro-infiltration, 72 h; immunoprecipitated with anti-HA/agarose beads; blot with anti-GFP or anti-HA

In the case of OsFBX503, the binding [1] is reported as “binds” and the binding [2] is reported as “binds”.

With OsPUB28 (enzyme) the binding [1] was “binds” and the binding [2] was “binds”.

For OsPUB46 (enzyme), the binding [1] was “binds” and the binding [2] was “binds”.

In the case of “OsPUB46-HA (rice (Oryza sativa L.)) (enzyme)”, the binding [3] is reported as “binds”.

With OsPUB49 (enzyme) the binding [1] was “binds” and the binding [2] was “binds”.

For OsPUB58 (enzyme), the binding [1] was “binds” and the binding [2] was “binds”.

OsPUB69 (enzyme) was tested, and the binding [1] was “binds” and the binding [2] was “binds”.

With OsRING77 (enzyme) the binding [1] was “binds” and the binding [2] was “binds”.

With OsRING113 (enzyme) the binding [1] was “binds” and the binding [2] was “binds”.

With OsRING171 (enzyme) the binding [1] was “binds” and the binding [2] was “binds”.

In the case of OsRING199 (enzyme), the binding [1] is reported as “binds” and the binding [2] is reported as “binds”.

With “OsRING199-HA (rice (Oryza sativa L.)) (enzyme)” the binding [3] was “no binding”.

OsRING394 (enzyme) was tested, and the binding [1] was “binds” and the binding [2] was “binds”.

In the case of rTGA2.1-GFP (rice (Oryza sativa L.)), the binding [4] is reported as “binds” and the binding [5] is reported as “binds”.

B1: OsNPR2 (protein, UniProt Q0JJ01 1-635)
chain: MPARSAVVVIAMEPSSSITIASSSSYLSNGSSPCSVSLAPPGAGAVAAQAAPVAAGEGGGGGGGGGGGGSSSVEVVSLNRLSANLERLLLDSDLDCSDADVDVADGGPPVPVHRCILAARSTFFYNLFAARGRGGDGAAGGGGGGGGGGGERTGGRPRYKMEELVPGGRVGRDAFLSLLGYLYTGKLRPAPDDVVSCADPMCPHDSCPPAIRFNVEQMYAAWAFKITELISLFQRRLLNFVDKTLVEDVLPILQVAFHSELTPVLEKCIRRIARSNLDNVSLDKELPPEVAVQIKEIRQKSQPNEGDTVISDPVHEKRVRRIHRALDSDDVELVKLLLNESEITLDDANALHYAAAYCDSKVVSELLDLRLANLNLKNSRGYTALHLAAMRREPAIIMCLLNKGAAVSQLTADGQSAMSICRRLTRMKDYNTKMEQGQESNKDRLCIDILDREMIRKPMAVEDSVTSPLLADDLHMKLLYLENRVAFARLFFPAEAKVAMQIAQADTTPEFGIVPAASTSGKLKEVDLNETPVTQNKRLRSRVDALMKTVELGRRYFPNCSQVLDKFLEDDLPDSPDALDLQNGTSDEQNVKRMRFCELKEDVRKAFSKDRADNSMFSILSSSSSSSPPPKVAKK
With B1 the binding [6] was “binds” and the binding [7] was “binds”.

B2: OsNPR3 (protein, UniProt Q75HA6 1-589)
chain: METSTISFSSSSPPSPPPPQPAPGDIDAVSLGRLSRNLENLLDPAFLNCADAEIVLASGGGDPGGGAVVGVHRCILAARSRFFYDHFSSAPAPAPATAGDKPQLDLDGLVPGGRHIGRDALVAVLSYLYTGRLRSAPPEAAACLDDGCSHDACRPAIDFVVESTYAASGFQISELVSLFQRRLSDFVNKALAEDILPILVVASTCHLPELLNQCIQRVANSNLDNRYLEKRLPDDLYAKLKEFRVPDEPHSGILDPEHEKRVRNIHKALDSDDVDLVGMLLKESPVTLDDAFAIHYAAAYCEPKVLAELLKLESANVNLKNSSGYTPLHMACMRREPDIIVSLIEKGASVLERTQDGRDALTICKRLTREKDRNEKSEKCKERSKAYLCIGVLQQEIKRRPQILEDQMSAEESIATPLLVDNFHMRLLNLENRVAFARIFFPSEAKLVMRIAQADSTQEFAGLTSANFSKLKEVDLNETPTMQNRRLRERLDALTKTVELGRRYFPHCSEVLDKFLNEESTDLILLESGTAEDQQTKRMRFSELREDVRKAFTKDKAAGAAISSSTSASSSPRYETKLRPGNKKGKLSR
B2 was tested, and the binding [6] was “binds” and the binding [7] was “binds”.

B3: NRR-GFP (protein, UniProt Q5ZEF1 1-127)
chain: MDATTTAKRKRPAASDIADDAPTTVDEVSDAEVEEFYAILRRMRDATRRLGARPPPPRAPAWRPSFSWEDFADAPPKQAPPPPQQPADHERVAENATPPRRPAPGLDLNVEPPSDAPATPRSARAPA
B3 was tested, and the binding [8] was “binds”.

Results are given in words; binding and its absence hold for the method and conditions named. Binding can be weak; no strength is given. For some of these results: Binding seen in cells or lysates may run through a third protein. For some of these results: Tags and fused reporters may be left off the sequences shown.
